# Measured values as given in PubChem BioAssay AID1347076 (National Center for Advancing Translational Sciences (NCATS), 2019).
# About 13,000 (3.2%) of roughly 400,000 compounds were called active. Inconclusive results, whose numbers are uncertain, are shown with a selection of clear calls. Calls come from the whole dose curve; as a rule, active = well fitted cell-killing curve with a large enough effect; inconclusive = small, poorly fitted or top-dose-only effect, or effect the other way; inactive = flat fitted curve, though single readings scatter. A potency beside an inconclusive call is a rough fit, not a confirmed value.
# Experiment: qHTS assay for MDR1-selective chemotherapeutics: Primary screen using the drug-selected MDR subline cells KB-V1; note: nearly all actives have a fitted effect of over 60% in size
# Conditions: KB-V1 MDR cells viability, CellTiter-Glo, 72 h; activity change, negative = cytotoxicity: at 46.1 µM (top of the series)
# Procedure, shortened: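 KB-V1 cells (P-gp-expressing MDR subline of KB-3-1) in phenol-red-free DMEM with 10% FBS were exposed to library compounds over a concentration series for 72 h at 37 degrees C. Viability read by CellTiter-Glo luminescence; concentration-effect curves fitted after normalization.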
# % is set by controls: 0 for no effect and ±100 for the full control effect; potency is the fitted concentration of half-maximal effect.
SMILES,Potency,"activity change, negative = cytotoxicity"
COc1ccc(C(c2nnnn2-c2c(C)cccc2C)N2CCC(n3c(=O)[nH]c4ccccc43)CC2)cc1 (configuration not stated),"inconclusive: 4.11 µM [cytotoxic, full curve]",–
COC(=O)[C@@H]1N=C(c2ccc(OC)cc2)O[C@]12C(=O)N(Cc1ccc(OC)cc1)c1ccccc12,active: 23.1 µM,–
O=c1[nH]c(=O)n(Cc2ccc(F)cc2)c(O)c1C=NCCCn1ccnc1,"inconclusive: 23.1 µM [rising, single point]",–
CCn1ccnc1CN1CCCC(C(=O)c2cc(F)ccc2OC)C1 (configuration not stated),–,inactive: -23.9%
O=C1NC(=S)N(c2ccccc2)C(=O)C1C(c1ccncc1)C1C(=O)NC(=S)N(c2ccccc2)C1=O (configuration not stated),–,inactive: 0.685%
COc1ccc(C2=NCC(=S)Nc3ccc(Cl)cc32)cc1OC,"inconclusive: 0.058 µM [rising, full curve]",–
CC1CN(c2cc([N+](=O)[O-])ccc2Cl)CC(C)N1 (configuration not stated),"inconclusive: 29.1 µM [rising, single point]",–
O=C(Nc1cccc(Cl)c1)c1c(O)c2c(n(Cc3ccco3)c1=O)CCCC2,"inconclusive: 29.1 µM [cytotoxic, single point]",–
O=C1NC(=O)C(CCc2ccncc2)(Cc2ccc([N+](=O)[O-])cc2)C(=O)N1,–,inactive: 0.191%
COC(=O)C1=C(c2ccccc2OCc2ccccc2)C[C@@H]2CC[C@H]1N2C(=O)NCCc1ccc(F)cc1,–,inactive: -16.7%
OCC#CC[N+]1(CC#Cc2ccccc2)CCCC1,–,inactive: 26.7%
Oc1ccc2c3c1O[C@H]1c4oc5ccccc5c4C[C@@]4(O)[C@@H](C2)N(CC2CC2)CC[C@]314,"inconclusive: 23.1 µM [cytotoxic, single point]",–
CCCCn1c(O)c(C(CC)=Nc2ccc(OC)cc2OC)c(=O)[nH]c1=O,active: 20.6 µM,–
COC(=O)C1=C(c2ccc(-c3ccccc3)c(F)c2)C[C@@H]2CC[C@H]1N2C(=O)NCCCOC(C)C,–,inactive: 0%
COc1ccccc1N1CCN(Cc2ccc(Br)cc2)CC1,"inconclusive: 7.31 µM [cytotoxic, partial curve, poor fit]",–
CCOC(=O)[C@]12Cc3ccc(C)cc3[C@H]1N(C1CCCCC1)C(=O)c1ccccc12,active: 2.31 µM,–
O=C1NC(=O)C(CCc2ccccn2)(Cc2cccc(Cl)c2Cl)C(=O)N1c1ccc(Br)cc1 (configuration not stated),active: 7.31 µM,–
CCCCCCCCCCCCn1ccc(=N)cc1,active: 8.2 µM,–
O=c1[nH]c(=O)n(C2CCCCC2)c(O)c1/C=C/C=Nc1ccccc1,–,inactive: 21.3%
O=P1(NCCCl)OCCCN1CCCl (configuration not stated),–,inactive: 7.49%
Cc1ccc(OCC(=O)Nc2ccc(Cl)cc2C(=O)c2ccccc2)c(Br)c1,–,inactive: 5.68%
CSc1ccc(C(=O)C2CCCN(CCCn3cccn3)C2)cc1 (configuration not stated),"inconclusive: 10.3 µM [cytotoxic, partial curve, poor fit]",–
C[C@]12CCC3C(C1CCC2=O)[C@H](O)C[C@H]1C[C@@H](O)CC[C@]31C (some centres not stated),"inconclusive: 11.6 µM [rising, partial curve, poor fit]",–
CC12CCC(=O)C=C1CCC1C2CCC2(C)C(O)CCC12 (configuration not stated),active: 4.11 µM,–

SMILES,Potency,"activity change, negative = cytotoxicity"
[N-]=[N+]=NCCN1CCC(O)CCC1=O (configuration not stated),"inconclusive: 2.31 µM [rising, full curve]",–
COc1ccccc1N1CCN(Cc2cnc(-c3ccccc3)[nH]2)CC1,"inconclusive: 29.1 µM [cytotoxic, single point]",–
CC(C)c1c(CN(C)C(C)Cc2ccccc2)n(C)n(-c2ccccc2)c1=O (configuration not stated),"inconclusive: 13 µM [cytotoxic, partial curve]",–
Fc1ccccc1CNC1CN2CCC1CC2 (configuration not stated),–,inactive: -2.77%
COc1ccc2c3c1OC1C(O)C=CC4[C@@H](C2)N(C)CC[C@]314 (some centres not stated),–,inactive: 10.3%
CCCCCCn1c(O)c(C=NCCCn2ccnc2)c(=O)[nH]c1=O,"inconclusive: 23.1 µM [rising, single point]",–
COc1cc2c(ccc3c4cc(OC)c(OC)cc4c[n+](C)c23)cc1O,–,inactive: 0.0951%
CC(C)N(CC#CCC1(O)c2ccccc2-c2ccccc21)C(C)C,"inconclusive: 8.2 µM [cytotoxic, partial curve]",–
Nc1ccccc1Cl,–,inactive: 14.9%
C=CCn1c(O)c(C(C)=NCCN2CCN(C(=S)NC)CC2)c(=O)[nH]c1=O,–,inactive: 0%
O=C1NCN(c2ccccc2)C12CCN(C(c1cccc3ccccc13)c1nnnn1-c1ccc3c(c1)OCCO3)CC2 (configuration not stated),"inconclusive: 18.4 µM [cytotoxic, single point]",–
COc1ccc(Cc2c(O)[nH]c(=O)[nH]c2=O)c(OC)c1,–,inactive: -14.7%
CC(=NCc1cccnc1)c1c(O)n(-c2ccc(C)cc2)c(=O)[nH]c1=O,"inconclusive: 18.4 µM [cytotoxic, partial curve, poor fit]",–
Cc1ccccc1NC(=O)COC(=O)c1cc(C)n(C2CC2)c1C,active: 13 µM,–
CC1C(OC(=O)CCC(=O)NC(C)(C)CO)O[C@H]2OC3(C)CC[C@H]4[C@H](C)CCC1C24OO3 (some centres not stated),active: 13 µM,–
NC(Cc1ccccc1Cl)c1nn[nH]n1 (configuration not stated),–,inactive: 12.1%
CCOc1ccc2c(c1)c(C(C)=O)c(C)n2Cc1ccco1,–,inactive: -5.06%
CCCCCCOC(=O)c1ccccc1N,–,inactive: -6.59%
CCOC(=O)[C@]12Cc3cc(OC)ccc3[C@H]1N(C1CCCCC1)C(=O)c1cc(OC)ccc12,"inconclusive: 29.1 µM [cytotoxic, single point]",–
C=CCN1C(=O)NC(=O)/C(=C/c2ccc(N(C)C)c(Br)c2)C1=O,"inconclusive: 20.6 µM [rising, partial curve, poor fit]",–
C[C@]12CCC3C(CC[C@H]4C[C@@H](O)CC[C@]34C)C1C[C@@H](O)C2=O (some centres not stated),"inconclusive: 18.4 µM [cytotoxic, partial curve, poor fit]",–
CCOC(=O)c1ccc(NC(=O)N2C[C@@H]3C[C@@H](C2)c2cccc(=O)n2C3)cc1,–,inactive: 5.03%
NC(=O)CN1CCCC1=O,–,inactive: 0.99%
CC1=CC(=O)OC2CC3OC4C[C@@H](C)C5OC6CC7O[C@]8(C)C/C=C\C9OC%10CC%11OC(CC(C)C%12OCCO%12)CC(O)[C@]%11(C)OC%10CC9OC8C[C@]7(C)O[C@]6(C)CCC5OC4C[C@]3(C)OC12 (some centres not stated),"inconclusive: 16.4 µM [rising, partial curve]",–

SMILES,Potency,"activity change, negative = cytotoxicity"
COC(=O)C(NC(=S)N1CC2C[C@@H](C1)Cn1c2cccc1=O)C(C)C (some centres not stated),"inconclusive: 29.1 µM [rising, partial curve, poor fit]",–
Nc1cccc(SC2CC(=O)N(c3ccc(Cl)cc3C(=O)c3ccccc3)C2=O)c1 (configuration not stated),"inconclusive: 6.51 µM [cytotoxic, partial curve]",–
CCCNC(=O)N1[C@H]2CC[C@@H]1C(C(=O)OC)=C(c1ccc(-c3ccccc3)c(F)c1)C2,"inconclusive: 16.4 µM [cytotoxic, single point]",–
COc1ccc(C(=O)N2CCC3(CC2)OCCO3)cc1,–,inactive: 0%
CC(C)CC(NC(=O)CCCNC(=O)CCC(=O)OC1O[C@H]2OC3(C)CC[C@H]4[C@H](C)CCC(C1C)C24OO3)C(=O)O (some centres not stated),"inconclusive: 23.1 µM [cytotoxic, partial curve]",–
CCCCCCCSc1cc(OC)c(CCN(C)C)cc1OC,"inconclusive: 18.4 µM [cytotoxic, single point]",–
COC(=O)c1ccccc1-n1c(C)nc2ccccc2c1=O,–,inactive: -10.2%
c1ccc(C2c3ccccc3-n3nncc3CN2CC2CCCCC2)cc1 (configuration not stated),"inconclusive: 32.6 µM [cytotoxic, single point]",–
COc1cc(/C=C/[N+](=O)[O-])ccc1OC(=O)c1cccnc1,"inconclusive: 32.6 µM [cytotoxic, single point]",–
S=C=Nc1ccccn1,–,inactive: 36%
COC(=O)C1=C(c2cc3ccccc3s2)C[C@@H]2CC[C@H]1N2C(=O)NC1CCCCC1,"inconclusive: 32.6 µM [cytotoxic, single point]",–
COc1cc([C@@H]2c3cc4c(c(O)c3C[C@H]3COC(=O)[C@@H]32)OCO4)cc(OC)c1OC,active: 4.11 µM,–
CC1(C)CC(CCNCc2ccc3c(c2)OCO3)(Cc2ccccc2)CCO1 (configuration not stated),–,inactive: 7.2%
CC(C)Oc1cccc(C(=O)C2CCCN(C3CCOCC3)C2)c1 (configuration not stated),"inconclusive: 1.64 µM [rising, partial curve]",–
CC(=O)OC1CC[C@@]2(C)C(=CC(=O)C3C4CCC(OC(C)=O)[C@@]4(C)CCC32)C1 (some centres not stated),–,inactive: -3.46%
CCOC(=O)C(O)(c1ccc(NC(=O)c2ccc(Cl)c(Cl)c2)cc1)C(F)(F)F (configuration not stated),"inconclusive: 23.1 µM [cytotoxic, single point]",–
CC(C)C[C@H](NP(=O)(O)O[C@@H]1O[C@@H](C)[C@H](O)[C@@H](O)[C@H]1O)C(=O)N[C@@H](Cc1c[nH]c2ccccc12)C(=O)O,"inconclusive: 23.1 µM [rising, single point]",–
CCC(=NCCc1ccccc1)c1c(O)n(C)c(=O)n(C)c1=O,"inconclusive: 6.51 µM [cytotoxic, partial curve, poor fit]",–
CCCCn1c(=O)c(C(=O)Nc2ccccc2S(N)(=O)=O)c(O)c2ccccc21,active: 16.4 µM,–
C[C@@H]1CN([C@H](C)CO)C(=O)CCCn2cc(nn2)CO[C@H]1CN(C)C(=O)Oc1ccc2ccccc2c1,–,inactive: 20.6%
COc1ccc(-n2c(/C=C/c3ccc(O)c(OC)c3)nc3ccccc3c2=O)cc1,–,inactive: -8.3%
CS(=O)(=O)c1ccc(C2=C(CNC(=O)c3ccncc3)[C@H]3CC[C@@H](C2)N3Cc2ccccc2)cc1,"inconclusive: 29.1 µM [rising, single point]",–
COC(=O)C(O)(c1ccc(NC(=S)NC(=O)c2ccccc2)cc1)C(F)(F)F (configuration not stated),–,inactive: 20.8%
C[C@]12CCC3C(C(=O)C[C@H]4C[C@@H](O)CC[C@]34C)C1CCC2=O (some centres not stated),–,inactive: -16.2%

# Of the compounds above, these have sulfur:
SMILES,Potency,"activity change, negative = cytotoxicity"
O=C1NC(=S)N(c2ccccc2)C(=O)C1C(c1ccncc1)C1C(=O)NC(=S)N(c2ccccc2)C1=O (configuration not stated),–,inactive: 0.685%
COc1ccc(C2=NCC(=S)Nc3ccc(Cl)cc32)cc1OC,"inconclusive: 0.058 µM [rising, full curve]",–
CSc1ccc(C(=O)C2CCCN(CCCn3cccn3)C2)cc1 (configuration not stated),"inconclusive: 10.3 µM [cytotoxic, partial curve, poor fit]",–
C=CCn1c(O)c(C(C)=NCCN2CCN(C(=S)NC)CC2)c(=O)[nH]c1=O,–,inactive: 0%
COC(=O)C(NC(=S)N1CC2C[C@@H](C1)Cn1c2cccc1=O)C(C)C (some centres not stated),"inconclusive: 29.1 µM [rising, partial curve, poor fit]",–
Nc1cccc(SC2CC(=O)N(c3ccc(Cl)cc3C(=O)c3ccccc3)C2=O)c1 (configuration not stated),"inconclusive: 6.51 µM [cytotoxic, partial curve]",–
CCCCCCCSc1cc(OC)c(CCN(C)C)cc1OC,"inconclusive: 18.4 µM [cytotoxic, single point]",–
S=C=Nc1ccccn1,–,inactive: 36%
COC(=O)C1=C(c2cc3ccccc3s2)C[C@@H]2CC[C@H]1N2C(=O)NC1CCCCC1,"inconclusive: 32.6 µM [cytotoxic, single point]",–
CCCCn1c(=O)c(C(=O)Nc2ccccc2S(N)(=O)=O)c(O)c2ccccc21,active: 16.4 µM,–
CS(=O)(=O)c1ccc(C2=C(CNC(=O)c3ccncc3)[C@H]3CC[C@@H](C2)N3Cc2ccccc2)cc1,"inconclusive: 29.1 µM [rising, single point]",–
COC(=O)C(O)(c1ccc(NC(=S)NC(=O)c2ccccc2)cc1)C(F)(F)F (configuration not stated),–,inactive: 20.8%

# Whole records from above. Order of values: Potency	activity change, negative = cytotoxicity
# CCOC(=O)[C@]12Cc3ccc(C)cc3[C@H]1N(C1CCCCC1)C(=O)c1ccccc12 as listed: active: 2.31 µM	–
# CSc1ccc(C(=O)C2CCCN(CCCn3cccn3)C2)cc1 (configuration not stated) as listed: inconclusive: 10.3 µM [cytotoxic, partial curve, poor fit]	–
